According to the supplement of paper PMC10849652:
This is one part of the list.

The chains behind the UniProt entries cited, without tags or fusion partners. Where a name states a change or a piece, a line headed by the entry shows the natural chain unless it says otherwise.
UniProt Q9BQ89: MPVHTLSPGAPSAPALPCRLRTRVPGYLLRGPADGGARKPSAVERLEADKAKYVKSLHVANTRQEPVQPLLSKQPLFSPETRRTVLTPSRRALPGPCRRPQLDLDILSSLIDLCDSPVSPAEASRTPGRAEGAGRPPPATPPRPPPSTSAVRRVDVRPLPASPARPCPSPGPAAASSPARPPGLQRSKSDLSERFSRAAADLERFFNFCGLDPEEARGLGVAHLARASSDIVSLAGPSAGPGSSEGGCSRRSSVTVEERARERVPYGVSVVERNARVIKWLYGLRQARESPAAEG
UniProt Q96RI0: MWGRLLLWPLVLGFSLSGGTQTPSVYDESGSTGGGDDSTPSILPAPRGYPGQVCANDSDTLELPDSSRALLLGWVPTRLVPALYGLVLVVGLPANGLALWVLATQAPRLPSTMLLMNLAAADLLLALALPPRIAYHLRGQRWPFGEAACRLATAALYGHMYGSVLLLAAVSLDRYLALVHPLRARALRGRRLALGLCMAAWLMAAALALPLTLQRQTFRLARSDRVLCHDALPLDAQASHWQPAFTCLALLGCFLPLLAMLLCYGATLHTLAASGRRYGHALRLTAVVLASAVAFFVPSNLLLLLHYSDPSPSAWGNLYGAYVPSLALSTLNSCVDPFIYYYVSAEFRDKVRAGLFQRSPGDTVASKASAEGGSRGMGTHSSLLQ
UniProt Q14320: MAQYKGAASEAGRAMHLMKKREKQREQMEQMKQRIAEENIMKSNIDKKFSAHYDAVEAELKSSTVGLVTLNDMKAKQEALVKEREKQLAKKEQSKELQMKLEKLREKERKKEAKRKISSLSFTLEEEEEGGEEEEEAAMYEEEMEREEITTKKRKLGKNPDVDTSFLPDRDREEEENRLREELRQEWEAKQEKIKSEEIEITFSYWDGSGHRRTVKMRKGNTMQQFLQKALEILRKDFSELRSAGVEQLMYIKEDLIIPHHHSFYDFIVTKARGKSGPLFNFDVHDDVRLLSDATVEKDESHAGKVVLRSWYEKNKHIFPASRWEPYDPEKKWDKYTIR
UniProt P41212: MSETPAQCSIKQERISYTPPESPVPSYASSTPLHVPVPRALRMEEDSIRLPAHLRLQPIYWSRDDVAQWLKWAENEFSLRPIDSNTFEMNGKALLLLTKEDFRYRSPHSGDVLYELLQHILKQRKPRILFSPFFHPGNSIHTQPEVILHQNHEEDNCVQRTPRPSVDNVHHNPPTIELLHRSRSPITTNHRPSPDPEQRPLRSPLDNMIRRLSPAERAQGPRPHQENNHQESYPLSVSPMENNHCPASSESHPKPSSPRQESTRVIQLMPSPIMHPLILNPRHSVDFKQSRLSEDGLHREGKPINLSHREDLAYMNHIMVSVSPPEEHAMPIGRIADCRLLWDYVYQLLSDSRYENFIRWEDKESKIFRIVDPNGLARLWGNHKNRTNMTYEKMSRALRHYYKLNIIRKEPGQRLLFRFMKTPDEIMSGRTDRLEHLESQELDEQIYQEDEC
UniProt Q8N0U4: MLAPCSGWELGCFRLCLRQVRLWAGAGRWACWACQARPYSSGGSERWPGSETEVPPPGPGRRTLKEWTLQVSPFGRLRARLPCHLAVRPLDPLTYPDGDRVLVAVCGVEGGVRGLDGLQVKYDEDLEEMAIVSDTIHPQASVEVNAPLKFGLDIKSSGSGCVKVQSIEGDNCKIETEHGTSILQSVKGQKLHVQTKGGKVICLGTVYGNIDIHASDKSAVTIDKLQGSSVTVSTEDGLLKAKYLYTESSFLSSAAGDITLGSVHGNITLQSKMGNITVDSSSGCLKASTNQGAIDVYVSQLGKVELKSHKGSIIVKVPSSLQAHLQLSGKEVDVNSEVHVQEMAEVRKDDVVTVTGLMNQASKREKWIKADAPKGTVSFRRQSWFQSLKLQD
UniProt Q9BPY3: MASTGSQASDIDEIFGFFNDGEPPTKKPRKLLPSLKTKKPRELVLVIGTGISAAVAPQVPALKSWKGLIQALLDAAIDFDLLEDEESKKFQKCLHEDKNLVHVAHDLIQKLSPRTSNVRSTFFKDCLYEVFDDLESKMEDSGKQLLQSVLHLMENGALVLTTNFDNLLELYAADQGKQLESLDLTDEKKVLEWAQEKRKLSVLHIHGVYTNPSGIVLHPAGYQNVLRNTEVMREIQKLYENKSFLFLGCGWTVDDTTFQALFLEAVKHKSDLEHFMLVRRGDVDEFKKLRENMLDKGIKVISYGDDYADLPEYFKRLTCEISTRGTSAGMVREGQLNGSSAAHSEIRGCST
UniProt Q5HYJ3: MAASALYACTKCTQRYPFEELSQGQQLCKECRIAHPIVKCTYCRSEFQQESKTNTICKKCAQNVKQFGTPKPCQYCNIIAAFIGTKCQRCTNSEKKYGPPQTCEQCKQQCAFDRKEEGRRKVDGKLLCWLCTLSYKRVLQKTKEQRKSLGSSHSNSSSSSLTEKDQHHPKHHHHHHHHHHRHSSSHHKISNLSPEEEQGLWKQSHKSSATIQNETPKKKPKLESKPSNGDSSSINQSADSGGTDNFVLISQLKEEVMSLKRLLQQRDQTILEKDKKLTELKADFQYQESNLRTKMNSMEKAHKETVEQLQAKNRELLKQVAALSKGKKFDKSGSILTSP
UniProt P38117: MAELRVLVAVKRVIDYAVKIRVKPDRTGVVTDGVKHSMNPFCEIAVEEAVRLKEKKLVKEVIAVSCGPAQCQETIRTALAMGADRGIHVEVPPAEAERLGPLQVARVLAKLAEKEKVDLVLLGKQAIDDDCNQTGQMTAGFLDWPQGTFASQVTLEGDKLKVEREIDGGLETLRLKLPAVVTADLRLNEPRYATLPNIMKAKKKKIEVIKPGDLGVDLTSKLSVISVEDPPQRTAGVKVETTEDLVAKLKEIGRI
UniProt Q9BYI3: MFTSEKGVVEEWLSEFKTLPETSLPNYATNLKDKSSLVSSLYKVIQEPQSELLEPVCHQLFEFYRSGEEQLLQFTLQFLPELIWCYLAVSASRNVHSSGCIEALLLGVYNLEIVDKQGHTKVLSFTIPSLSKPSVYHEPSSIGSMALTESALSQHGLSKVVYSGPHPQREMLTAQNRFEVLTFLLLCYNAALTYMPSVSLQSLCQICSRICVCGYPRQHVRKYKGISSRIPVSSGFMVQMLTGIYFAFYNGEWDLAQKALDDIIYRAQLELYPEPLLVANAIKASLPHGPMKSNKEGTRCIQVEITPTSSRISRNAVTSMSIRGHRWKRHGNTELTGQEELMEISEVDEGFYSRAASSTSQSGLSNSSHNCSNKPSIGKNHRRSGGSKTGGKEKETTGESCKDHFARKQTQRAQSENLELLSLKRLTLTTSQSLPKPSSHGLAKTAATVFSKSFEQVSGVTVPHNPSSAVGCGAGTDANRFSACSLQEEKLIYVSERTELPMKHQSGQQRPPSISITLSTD
UniProt Q6P1L5: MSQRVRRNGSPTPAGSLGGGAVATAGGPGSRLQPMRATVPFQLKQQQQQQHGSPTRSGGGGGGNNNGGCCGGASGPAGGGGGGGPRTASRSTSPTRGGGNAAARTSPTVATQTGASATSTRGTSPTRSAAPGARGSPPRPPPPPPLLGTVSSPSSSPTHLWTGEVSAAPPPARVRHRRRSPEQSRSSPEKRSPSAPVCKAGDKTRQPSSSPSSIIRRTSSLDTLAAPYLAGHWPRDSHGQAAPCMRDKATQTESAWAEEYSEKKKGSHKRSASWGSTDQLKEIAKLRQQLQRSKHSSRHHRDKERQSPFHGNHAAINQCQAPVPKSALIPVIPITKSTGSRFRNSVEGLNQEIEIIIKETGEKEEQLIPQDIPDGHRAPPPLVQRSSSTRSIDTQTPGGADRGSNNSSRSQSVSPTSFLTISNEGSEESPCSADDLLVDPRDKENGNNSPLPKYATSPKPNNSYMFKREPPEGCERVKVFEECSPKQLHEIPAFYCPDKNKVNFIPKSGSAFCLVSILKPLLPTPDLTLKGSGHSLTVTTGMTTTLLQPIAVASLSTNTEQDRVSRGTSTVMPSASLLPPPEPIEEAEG
UniProt Q8IWE2: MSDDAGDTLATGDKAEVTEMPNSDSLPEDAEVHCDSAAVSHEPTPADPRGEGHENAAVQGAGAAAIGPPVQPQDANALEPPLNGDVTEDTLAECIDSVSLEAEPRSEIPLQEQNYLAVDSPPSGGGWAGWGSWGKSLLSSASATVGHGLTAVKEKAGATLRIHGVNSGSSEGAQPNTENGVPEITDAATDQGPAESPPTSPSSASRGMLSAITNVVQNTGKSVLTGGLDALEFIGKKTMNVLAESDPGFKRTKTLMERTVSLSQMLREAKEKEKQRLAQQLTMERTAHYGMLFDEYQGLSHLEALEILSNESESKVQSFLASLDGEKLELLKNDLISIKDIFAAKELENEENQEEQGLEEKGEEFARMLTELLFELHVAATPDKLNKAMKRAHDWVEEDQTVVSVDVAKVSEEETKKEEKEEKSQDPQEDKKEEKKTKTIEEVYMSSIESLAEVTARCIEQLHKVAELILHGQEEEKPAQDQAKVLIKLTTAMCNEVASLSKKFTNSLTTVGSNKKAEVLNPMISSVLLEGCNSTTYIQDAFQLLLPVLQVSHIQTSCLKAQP
UniProt Q9UBQ6: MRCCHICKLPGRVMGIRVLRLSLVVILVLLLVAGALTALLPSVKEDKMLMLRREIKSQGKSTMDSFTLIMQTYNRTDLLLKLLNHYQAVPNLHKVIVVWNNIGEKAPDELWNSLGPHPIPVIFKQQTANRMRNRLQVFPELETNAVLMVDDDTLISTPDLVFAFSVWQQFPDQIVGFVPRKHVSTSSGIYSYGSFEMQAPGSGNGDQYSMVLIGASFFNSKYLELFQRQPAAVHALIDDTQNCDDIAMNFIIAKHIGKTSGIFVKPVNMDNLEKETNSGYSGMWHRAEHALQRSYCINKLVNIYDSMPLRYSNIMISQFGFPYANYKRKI
UniProt Q7Z309: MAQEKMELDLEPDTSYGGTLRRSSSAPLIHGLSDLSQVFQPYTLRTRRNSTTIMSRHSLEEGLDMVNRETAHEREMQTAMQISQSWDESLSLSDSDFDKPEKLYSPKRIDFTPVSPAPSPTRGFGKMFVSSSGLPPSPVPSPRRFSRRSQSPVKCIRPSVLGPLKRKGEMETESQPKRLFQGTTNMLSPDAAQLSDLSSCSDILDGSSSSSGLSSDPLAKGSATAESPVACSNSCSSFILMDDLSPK
UniProt P25116: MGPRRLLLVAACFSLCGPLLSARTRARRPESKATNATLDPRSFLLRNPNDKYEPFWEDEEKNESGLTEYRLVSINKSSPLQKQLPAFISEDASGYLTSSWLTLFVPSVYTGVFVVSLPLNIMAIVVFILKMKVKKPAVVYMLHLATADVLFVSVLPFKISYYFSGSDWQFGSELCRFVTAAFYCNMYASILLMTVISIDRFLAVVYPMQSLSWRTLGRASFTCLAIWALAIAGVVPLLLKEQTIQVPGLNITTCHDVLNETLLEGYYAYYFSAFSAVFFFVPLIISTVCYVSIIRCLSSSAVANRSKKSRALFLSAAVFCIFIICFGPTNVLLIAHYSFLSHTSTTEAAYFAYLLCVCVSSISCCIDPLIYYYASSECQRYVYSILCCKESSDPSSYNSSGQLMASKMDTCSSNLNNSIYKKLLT
UniProt Q86V87: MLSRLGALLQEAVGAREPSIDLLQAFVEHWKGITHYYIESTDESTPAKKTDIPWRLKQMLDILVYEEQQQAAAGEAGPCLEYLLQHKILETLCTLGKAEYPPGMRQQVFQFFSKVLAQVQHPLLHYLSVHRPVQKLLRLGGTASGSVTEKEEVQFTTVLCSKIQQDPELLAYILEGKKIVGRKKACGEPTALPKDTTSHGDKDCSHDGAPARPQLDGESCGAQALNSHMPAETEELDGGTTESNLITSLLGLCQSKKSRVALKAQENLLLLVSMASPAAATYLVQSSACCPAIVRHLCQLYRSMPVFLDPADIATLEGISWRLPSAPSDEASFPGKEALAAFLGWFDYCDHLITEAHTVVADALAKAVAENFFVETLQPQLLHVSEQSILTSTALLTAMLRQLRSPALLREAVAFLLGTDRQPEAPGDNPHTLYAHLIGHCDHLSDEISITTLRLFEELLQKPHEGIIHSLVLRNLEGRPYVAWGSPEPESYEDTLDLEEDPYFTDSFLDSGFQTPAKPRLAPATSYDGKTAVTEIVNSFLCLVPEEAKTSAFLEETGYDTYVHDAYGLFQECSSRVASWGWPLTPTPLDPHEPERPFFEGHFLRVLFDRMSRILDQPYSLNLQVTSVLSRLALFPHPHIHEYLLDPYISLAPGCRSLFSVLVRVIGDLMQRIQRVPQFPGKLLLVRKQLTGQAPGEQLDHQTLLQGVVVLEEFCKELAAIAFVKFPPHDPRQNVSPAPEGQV

Experiments:
Experiment in all cases: log2 fold change, soluble protein after heating vs DMSO (PISA); higher = thermal stabilisation; K562 lysate, 10 uM; active = over 0.2 and 3.5 SD of the protein, either way, in both replicates (recomputed)
lapatinib = compound: CS(=O)(=O)CCNCc1ccc(-c2ccc3ncnc(Nc4ccc(OCc5cccc(F)c5)c(Cl)c4)c3c2)o1 [lapatinib]
Summary of the method: (§1)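 The values are log-two fold changes in thermal stability compared with solvent controls and come from duplicates. They were obtained by TMTpro 16plex LC-MS/MS, with channel sums equalised, on the supernatant after 21,000xg for 90 min. That supernatant came from crude K562 extract at 1 mg/mL protein treated with 10 μM compound for 30 min, heated for 3 min across 48°C-58°C, pooled and brought to 0.5% NP-40 at 4°C.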

pictilisib = compound: CS(=O)(=O)N1CCN(Cc2cc3nc(-c4cccc5[nH]ncc45)nc(N4CCOCC4)c3s2)CC1 [pictilisib]
Summary of the method: as §1

crizotinib = compound: C[C@@H](Oc1cc(-c2cnn(C3CCNCC3)c2)cnc1N)c1c(Cl)ccc(F)c1Cl [crizotinib]
Summary of the method: as §1

[1] = compound: C[C@H](C1=CC=C(C=C1)C(=O)NC2=C3C=CNC3=NC=C2)N
Summary of the method: as §1

gandotinib = compound: Cc1cc(Nc2cc(CN3CCOCC3)c3nc(C)c(Cc4ccc(Cl)cc4F)n3n2)n[nH]1 [gandotinib]
Summary of the method: as §1

doramapimod = compound: Cc1ccc(-n2nc(C(C)(C)C)cc2NC(=O)Nc2ccc(OCCN3CCOCC3)c3ccccc23)cc1 [doramapimod]
Summary of the method: as §1

bafetinib = compound: Cc1ccc(NC(=O)c2ccc(CN3CC[C@H](N(C)C)C3)c(C(F)(F)F)c2)cc1Nc1nccc(-c2cncnc2)n1 [bafetinib]
Summary of the method: as §1

[2] = compound: Cc1cccc(CC(=O)N2CCc3c2ccc(-c2cn(C)c4ncnc(N)c24)c3F)n1
Summary of the method: as §1

quisinostat = compound: Cn1cc(CNCC2CCN(c3ncc(C(=O)NO)cn3)CC2)c2ccccc21 [quisinostat]
Summary of the method: as §1

[3] = compound: NC(=O)Nc1cc(-c2cccc(F)c2)sc1C(=O)N[C@H]1CCCNC1
Summary of the method: as §1

[4] = compound: NC(=O)c1cnc(N[C@@H]2CCCC[C@@H]2N)nc1Nc1cccc(-n2nccn2)c1
Summary of the method: as §1

[5] = compound: NC1(c2ccc(-c3nc4ccn5c(=O)[nH]nc5c4cc3-c3ccccc3)cc2)CCC1
Summary of the method: as §1

duvelisib = compound: C[C@H](Nc1ncnc2nc[nH]c12)c1cc2cccc(Cl)c2c(=O)n1-c1ccccc1 [duvelisib]
Summary of the method: as §1

nilotinib = compound: Cc1cn(-c2cc(NC(=O)c3ccc(C)c(Nc4nccc(-c5cccnc5)n4)c3)cc(C(F)(F)F)c2)cn1 [nilotinib]
Summary of the method: as §1

[6] = compound: Cc1nc(Nc2n[nH]c3c2CN(C(=O)N[C@H](CN(C)C)c2ccccc2)C3(C)C)c2sccc2n1
Summary of the method: as §1

dasatinib = compound: Cc1nc(Nc2ncc(C(=O)Nc3c(C)cccc3Cl)s2)cc(N2CCN(CCO)CC2)n1 [dasatinib]
Summary of the method: as §1

[7] = compound: Cc1ncc(-c2ccnc(Nc3ccc(S(C)(=O)=O)cc3)n2)n1C(C)C
Summary of the method: as §1

[8] = compound: Cn1cc(-c2ccc3c(c2)CCN3C(=O)Cc2cccc(C(F)(F)F)c2)c2c(N)ncnc21
Summary of the method: as §1

tipifarnib = compound: Cn1cncc1[C@@](N)(c1ccc(Cl)cc1)c1ccc2c(c1)c(-c1cccc(Cl)c1)cc(=O)n2C [tipifarnib]
Summary of the method: as §1

tozasertib = compound: Cc1cc(Nc2cc(N3CCN(C)CC3)nc(Sc3ccc(NC(=O)C4CC4)cc3)n2)n[nH]1 [tozasertib]
Summary of the method: as §1

Target | log2 fold change (lapatinib) | log2 fold change (pictilisib) | log2 fold change (crizotinib) | log2 fold change [1] | log2 fold change (gandotinib) | log2 fold change (doramapimod) | log2 fold change (bafetinib) | log2 fold change [2] | log2 fold change (quisinostat) | log2 fold change [3] | log2 fold change [4] | log2 fold change [5] | log2 fold change (duvelisib) | log2 fold change (nilotinib) | log2 fold change [6] | log2 fold change (dasatinib) | log2 fold change [7] | log2 fold change [8] | log2 fold change (tipifarnib) | log2 fold change (tozasertib)
FAM110A (UniProt Q9BQ89) | inactive: 0.136 | inactive: 0 | inactive: 0.056 | inactive: -0.099 | inactive: 0.041 | inactive: -0.173 | inactive: 0.066 | inactive: -0.127 | inactive: 0.013 | inactive: -0.226 | inactive: -0.003 | inactive: -0.058 | – | – | – | – | – | – | – | –
F2RL3 (UniProt Q96RI0) | inactive: -0.147 | – | – | inactive: -0.048 | inactive: -0.106 | – | – | inactive: 0.155 | – | – | inactive: 0.049 | inactive: -0.053 | inactive: -0.059 | inactive: 0.153 | inactive: -0.007 | inactive: -0.023 | inactive: -0.022 | inactive: 0.039 | inactive: -0.145 | –
FADS1, A0A0A0MR51 | inactive: 0.203 | inactive: -0.087 | inactive: -0.003 | inactive: -0.024 | active: 0.559 | inactive: 0.018 | inactive: 0.027 | inactive: 0.083 | inactive: 0.004 | inactive: 0.008 | inactive: -0.114 | inactive: 0.022 | inactive: -0.029 | inactive: 0.065 | inactive: -0.078 | inactive: 0.04 | inactive: 0.02 | inactive: 0.079 | inactive: 0.069 | inactive: 0.041
FAM50A (UniProt Q14320) | inactive: -0.003 | inactive: 0.005 | inactive: 0.033 | inactive: 0.128 | inactive: -0.015 | inactive: 0.008 | inactive: -0.015 | inactive: -0.048 | inactive: 0.039 | inactive: -0.053 | inactive: 0.012 | inactive: 0.015 | inactive: 0.003 | inactive: -0.012 | inactive: 0.032 | inactive: 0.025 | inactive: 0.001 | inactive: -0.009 | inactive: 0.01 | inactive: -0.004
ETV6 (UniProt P41212) | inactive: 0.014 | – | inactive: 0.084 | inactive: -0.133 | inactive: -0.116 | inactive: -0.087 | – | inactive: -0.011 | inactive: -0.166 | inactive: 0.194 | inactive: 0.001 | – | inactive: -0.209 | inactive: 0.091 | inactive: -0.187 | inactive: 0.067 | inactive: -0.054 | inactive: 0.038 | inactive: 0.186 | inactive: 0.054
EXO1 (UniProt Q9UQ84) | inactive: 0.054 | – | inactive: 0.041 | inactive: -0.13 | inactive: 0.238 | inactive: -0.056 | – | inactive: 0.101 | inactive: -0.01 | inactive: 0.082 | inactive: 0.03 | inactive: -0.306 | – | inactive: 0.01 | inactive: 0.057 | – | inactive: 0.076 | – | inactive: 0.001 | –
FAM185A (UniProt Q8N0U4) | inactive: -0.038 | inactive: -0.047 | inactive: 0.031 | inactive: -0.058 | inactive: 0.019 | inactive: 0.116 | inactive: 0.014 | inactive: -0.014 | inactive: -0.001 | inactive: 0 | inactive: -0.028 | inactive: -0.14 | inactive: -0.079 | – | – | inactive: -0.099 | – | inactive: -0.027 | – | –
FAM193A, A0A1B0GVL4 | inactive: -0.004 | inactive: 0.036 | inactive: -0.009 | inactive: -0.061 | inactive: 0.053 | inactive: -0.044 | inactive: -0.138 | inactive: 0.245 | inactive: 0.036 | inactive: 0.064 | inactive: -0.119 | inactive: 0.055 | – | inactive: -0.001 | inactive: -0.016 | – | inactive: -0.04 | – | inactive: -0.041 | inactive: 0.143
FAM111A (UniProt Q96PZ2) | inactive: 0.223 | – | inactive: -0.01 | – | – | inactive: -0.163 | – | – | inactive: 0.18 | inactive: 0.039 | inactive: 0.035 | inactive: -0.037 | inactive: 0.03 | – | – | inactive: -0.097 | – | inactive: 0.015 | – | inactive: -0.02
FAM118B (UniProt Q9BPY3) | inactive: 0.022 | inactive: -0.013 | inactive: -0.093 | inactive: -0.022 | inactive: -0.044 | inactive: 0.048 | inactive: 0.008 | inactive: 0.037 | inactive: -0.06 | inactive: 0.021 | inactive: 0.032 | inactive: -0.007 | inactive: 0.045 | inactive: -0.018 | inactive: 0.002 | inactive: -0.039 | inactive: -0.009 | inactive: -0.008 | inactive: -0.015 | inactive: -0.008
FAM76B (UniProt Q5HYJ3) | inactive: -0.049 | – | inactive: 0.028 | inactive: -0.19 | inactive: 0.023 | inactive: -0.016 | – | active: 0.269 | inactive: -0.028 | inactive: -0.032 | inactive: -0.026 | inactive: -0.07 | inactive: -0.02 | inactive: -0.044 | inactive: 0.019 | inactive: 0.093 | inactive: -0.004 | inactive: 0.005 | inactive: -0.019 | inactive: -0.021
ETFB (UniProt P38117) | inactive: 0.004 | inactive: 0.006 | inactive: 0.041 | inactive: -0.103 | inactive: 0.077 | inactive: -0.013 | inactive: 0.036 | inactive: 0.099 | inactive: 0.081 | inactive: -0.041 | inactive: 0.011 | inactive: -0.004 | inactive: 0.04 | inactive: -0.003 | inactive: -0.017 | inactive: -0.003 | inactive: -0.015 | inactive: -0.023 | inactive: 0.024 | inactive: 0.021
FAM126A (UniProt Q9BYI3) | inactive: -0.17 | inactive: -0.005 | inactive: -0.059 | inactive: 0.043 | inactive: -0.03 | inactive: -0.041 | inactive: -0.012 | inactive: -0.01 | inactive: -0.13 | inactive: 0.028 | inactive: 0.017 | inactive: -0.119 | inactive: 0.092 | inactive: 0.027 | inactive: 0.041 | inactive: -0.074 | inactive: -0.006 | inactive: 0.025 | inactive: -0.069 | –
FAM117B (UniProt Q6P1L5) | inactive: -0.021 | – | inactive: -0.039 | inactive: 0.001 | inactive: 0.209 | inactive: -0.024 | – | inactive: 0.147 | inactive: -0.046 | inactive: 0.09 | inactive: 0.074 | inactive: 0.148 | inactive: 0.143 | inactive: -0.067 | inactive: -0.044 | inactive: -0.073 | inactive: -0.054 | inactive: -0.28 | inactive: -0.088 | –
FAM114A1 (UniProt Q8IWE2) | inactive: 0.049 | inactive: -0.13 | – | inactive: -0.065 | inactive: 0.252 | – | inactive: -0.038 | inactive: 0.057 | – | – | inactive: 0.016 | inactive: 0.029 | inactive: -0.096 | – | – | inactive: -0.016 | – | inactive: -0.009 | – | inactive: -0.039
FAM193B (UniProt Q96PV7) | inactive: 0.126 | – | inactive: -0.047 | inactive: -0.176 | inactive: 0.021 | inactive: 0.072 | – | inactive: 0.266 | inactive: 0.382 | inactive: -0.025 | inactive: 0.048 | inactive: 0.007 | – | – | – | – | – | – | – | –
EXTL2 (UniProt Q9UBQ6) | inactive: -0.071 | inactive: -0.282 | inactive: 0.032 | inactive: -0.138 | inactive: 0.106 | inactive: 0.058 | inactive: -0.02 | inactive: -0.006 | inactive: -0.146 | inactive: 0.035 | inactive: -0.068 | inactive: 0.003 | inactive: -0.001 | inactive: 0.07 | inactive: -0.085 | inactive: 0.127 | inactive: 0.081 | inactive: 0.13 | inactive: 0.017 | inactive: 0.028
FAM122B isoform 3 (UniProt Q7Z309) | inactive: 0.06 | inactive: -0.036 | inactive: -0.011 | inactive: -0.085 | inactive: 0.233 | inactive: -0.019 | inactive: 0.035 | inactive: -0.329 | inactive: -0.004 | inactive: -0.029 | inactive: 0.042 | inactive: -0.183 | inactive: -0.396 | – | – | inactive: -0.091 | – | inactive: 0.037 | – | inactive: -0.067
EXOC6B (UniProt Q9Y2D4) | inactive: 0.057 | – | inactive: -0.116 | – | – | inactive: 0 | – | – | inactive: -0.045 | inactive: 0.015 | inactive: -0.015 | – | – | inactive: 0.025 | inactive: 0.019 | – | inactive: -0.013 | – | inactive: 0.009 | inactive: -0.06
F2R (UniProt P25116) | – | – | inactive: -0.025 | inactive: 0.081 | inactive: -0.044 | inactive: -0.018 | – | inactive: -0.031 | inactive: -0.044 | inactive: 0.005 | – | – | – | – | – | – | – | – | – | –
FAM160B2 (UniProt Q86V87) | – | – | inactive: -0.292 | inactive: -0.245 | inactive: -0.168 | inactive: 0.079 | – | inactive: 0.104 | inactive: -0.272 | inactive: 0 | – | inactive: 0.128 | – | inactive: -0.063 | inactive: -0.08 | – | inactive: 0.094 | – | inactive: -0.029 | inactive: 0.042

Part of the list above, as tab-separated lines:
Target	log2 fold change (lapatinib)	log2 fold change (pictilisib)	log2 fold change (crizotinib)	log2 fold change [1]	log2 fold change (gandotinib)	log2 fold change (doramapimod)	log2 fold change (bafetinib)	log2 fold change [2]	log2 fold change (quisinostat)	log2 fold change [3]	log2 fold change [4]	log2 fold change [5]	log2 fold change (duvelisib)	log2 fold change (nilotinib)	log2 fold change [6]	log2 fold change (dasatinib)	log2 fold change [7]	log2 fold change [8]	log2 fold change (tipifarnib)	log2 fold change (tozasertib)
ETFB (UniProt P38117)	inactive: 0.004	inactive: 0.006	inactive: 0.041	inactive: -0.103	inactive: 0.077	inactive: -0.013	inactive: 0.036	inactive: 0.099	inactive: 0.081	inactive: -0.041	inactive: 0.011	inactive: -0.004	inactive: 0.04	inactive: -0.003	inactive: -0.017	inactive: -0.003	inactive: -0.015	inactive: -0.023	inactive: 0.024	inactive: 0.021
FAM126A (UniProt Q9BYI3)	inactive: -0.17	inactive: -0.005	inactive: -0.059	inactive: 0.043	inactive: -0.03	inactive: -0.041	inactive: -0.012	inactive: -0.01	inactive: -0.13	inactive: 0.028	inactive: 0.017	inactive: -0.119	inactive: 0.092	inactive: 0.027	inactive: 0.041	inactive: -0.074	inactive: -0.006	inactive: 0.025	inactive: -0.069	–
FAM193B (UniProt Q96PV7)	inactive: 0.126	–	inactive: -0.047	inactive: -0.176	inactive: 0.021	inactive: 0.072	–	inactive: 0.266	inactive: 0.382	inactive: -0.025	inactive: 0.048	inactive: 0.007	–	–	–	–	–	–	–	–
F2R (UniProt P25116)	–	–	inactive: -0.025	inactive: 0.081	inactive: -0.044	inactive: -0.018	–	inactive: -0.031	inactive: -0.044	inactive: 0.005	–	–	–	–	–	–	–	–	–	–
